# Measured values published in US20210195892A1, “COMPOSITION AND METHOD FOR MICROBIAL CONTROL ON MATERIAL SURFACES” (Microban Products Company, priority 2019, published 2021).
# Structures can show the parent of a compound that is named as a salt. Some results were stated once for a whole list of compounds, not compound by compound.
# Assay: Thermogravimetric analysis (TGA) at 10° C./min
# Format: physicochemical
# Settings: TGA 10° C./min, FIG. 1
compound,measurement,value
"O=C(O)CC(O)(CC(=O)O)C(=O)O [GNC, sodium citrate]",thermally stable (no mass loss) to temperature,greater than 275 °C
